PubChem BioAssay AID1224828, NIAID, 2016

Test: 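Regulators linking TLR4 signalling to p65 nuclear translocation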 (primary screen)
System: mouse RAW264.7 G9 macrophage reporter cells (GFP-p65, Tnf promoter-mCherry)
Knock-down reagent: siRNA pool against mouse genes, 100 nM
Timing: 2 days siRNA transfection, then 40 min LPS before fixation
Challenge: LPS (Salmonella minnesota R595) at 10 ng/ml
Read-out: 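Imaged p65 nuclear translocation ratio, normalised to the plate median, converted to robust z-scores and averaged across two replicates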
Scale: p65 translocation robust z-score: higher = more nuclear NF-kappaB p65 after LPS than the plate median; nuclear/cytoplasmic p65 ratio: higher = more nuclear NF-kappaB p65
Call rule: 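Called active when z exceeds 3.3 or falls under -1.56 (median of Tlr4 controls), giving activity score of at least 50; no calls for control wells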
Meaning of the calls: active = hit (p65 shift raised or lowered); inactive = no clear change
Here is an unselected part of about 17,000 reagents tested. 762 of them (4.5%) count as active. 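Active calls include both raised and lowered p65 entry, mostly lowered; wells with fewer than 50 cells lack a z-score.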 The raw values are shown without normalisation. Entries without a mark were called inactive. Reagent sequences are not shown.

For Atg16l1, the values are p65 translocation robust z-score 0.28; nuclear/cytoplasmic p65 ratio, rep 1 = 1.59; nuclear/cytoplasmic p65 ratio, rep 2 = 1.6; low cell count flag enough cells to score.
With knock-down of Tnfaip8l1, the record shows p65 translocation robust z-score -0.71; nuclear/cytoplasmic p65 ratio, rep 1 = 1.29; nuclear/cytoplasmic p65 ratio, rep 2 = 1.38; low cell count flag enough cells to score.
Or10d4c scored nuclear/cytoplasmic p65 ratio, rep 1 = 1.09; nuclear/cytoplasmic p65 ratio, rep 2 = 1.15; low cell count flag fewer than 50 cells per well; well left out of scoring.
Knock-down of Gcc1 resulted in: p65 translocation robust z-score -1.02; nuclear/cytoplasmic p65 ratio, rep 1 = 1.5; nuclear/cytoplasmic p65 ratio, rep 2 = 1.27; low cell count flag enough cells to score.
With knock-down of Kiss1, the record shows p65 translocation robust z-score -0.53; nuclear/cytoplasmic p65 ratio, rep 1 = 1.42; nuclear/cytoplasmic p65 ratio, rep 2 = 1.3; low cell count flag enough cells to score.
For Adamtsl3, the entry reads p65 translocation robust z-score -0.27; nuclear/cytoplasmic p65 ratio, rep 1 = 1.65; nuclear/cytoplasmic p65 ratio, rep 2 = 1.52; low cell count flag enough cells to score.
Depletion of Spag16 gave: p65 translocation robust z-score 0.03; nuclear/cytoplasmic p65 ratio, rep 1 = 1.28; nuclear/cytoplasmic p65 ratio, rep 2 = 1.27; low cell count flag enough cells to score.
After knock-down of Nrap, the record shows p65 translocation robust z-score 0.51; nuclear/cytoplasmic p65 ratio, rep 1 = 1.75; nuclear/cytoplasmic p65 ratio, rep 2 = 1.64; low cell count flag enough cells to score.
With knock-down of Sh3d19, the record shows p65 translocation robust z-score -0.93; nuclear/cytoplasmic p65 ratio, rep 1 = 1.28; nuclear/cytoplasmic p65 ratio, rep 2 = 1.15; low cell count flag enough cells to score.
L2hgdh gave p65 translocation robust z-score 0.44; nuclear/cytoplasmic p65 ratio, rep 1 = 1.73; nuclear/cytoplasmic p65 ratio, rep 2 = 1.82; low cell count flag enough cells to score.
With knock-down of Vpreb1b the results were p65 translocation robust z-score -1.1; nuclear/cytoplasmic p65 ratio, rep 1 = 1.4; nuclear/cytoplasmic p65 ratio, rep 2 = 1.31; low cell count flag enough cells to score.
Fam151a gave nuclear/cytoplasmic p65 ratio, rep 1 = 1.42; nuclear/cytoplasmic p65 ratio, rep 2 = 1.67; low cell count flag fewer than 50 cells per well; well left out of scoring.
